Laboratory results: publication doi:10.1101/2020.04.03.023861
Where two headings read alike, the source gives them in different places. Results are given in words; binding and its absence hold for the method and conditions named. For some assays here: In cells and extracts the contact can be indirect. Some binding calls cover weakened binding; strength is not graded here. For some assays here: Sequences can lack the tags named with a protein.

Amino acid sequences for entries named in this document (tags omitted). Residues count along the entry.
UniProt P05496, residues 62-136: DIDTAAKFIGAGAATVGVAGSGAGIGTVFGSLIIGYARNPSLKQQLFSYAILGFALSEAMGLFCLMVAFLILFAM

Tests used:
[1] = target: T1, TMEM70-FLAG (human) (UniProt Q9BUB7); assay: co-IP
T1 sequence: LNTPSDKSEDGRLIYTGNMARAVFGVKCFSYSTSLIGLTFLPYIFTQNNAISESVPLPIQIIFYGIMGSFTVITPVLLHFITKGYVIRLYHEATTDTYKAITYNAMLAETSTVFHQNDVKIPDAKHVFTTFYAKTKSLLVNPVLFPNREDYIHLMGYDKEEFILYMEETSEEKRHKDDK

[2] = target: T1, TMEM70-FLAG (human); assay: co-IP; remark: listed apart in the source
[3] = target: T2, TMEM70 (endogenous) (human (endogenous in HEK293T and 143B)) (UniProt Q9BUB7); assay: native gel or EMSA
T2 sequence: T1 sequence

[4] = target: T1, TMEM70-FLAG (human); assay: co-IP + native gel or EMSA
[5] = target: T2, TMEM70 (endogenous) (human (endogenous in HEK293T and 143B)); assay: native gel or EMSA; remark: listed apart in the source
[6] = target: T1, TMEM70-FLAG (human); assay: native gel or EMSA
[7] = target: T2, TMEM70 (endogenous) (human (endogenous in HEK293T and 143B)); assay: native gel or EMSA; remark: listed apart in the source
[8] = target: T3, TMEM70 (untagged, exogenous) (human) (UniProt Q9BUB7); assay: native gel or EMSA
T3 sequence: T1 sequence

Measured: binding

subunit c of the ATP synthase (from UniProt P05496 62-136)
binds: all assays above
